The campaign covered roughly 52,000 sequences. About 210 (0.4%) were called active.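 How the source made its calls: active means gene whose silencing raises cell survival under the drug, median off-target-corrected z-score across its silencing RNAs 2 or more; inactive means the rest.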 The list shows a part of the results.
test: Resistance to Poly (ADP-Ribose) Polymerase inhibitor: Gene Identification via Genome-wide siRNA Screen; conditions: mouse BRCA2 R2336H ES cells, olaparib, CellTiter-Glo viability; stronger effect = higher value
Summary of the method: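 Mouse BRCA2 R2336H ES cells were reverse-transfected with siRNA (20 nM final), treated at 48 h with 500 nM olaparib, and read by CellTiter-Glo after 72 h. Scores: MAD-based z per siRNA, median per gene, seed off-target correction.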

Row | Sequence | z-score
1 | GGAUUUCUACAGGGUGUAUTT against Trim8 | inactive: -0.361
2 | GGAGACUCUCACCUAUCAUTT against Doc2g | inactive: 1.08
3 | CCUCUCCUUCUUAGACAUGTT against Olfr724 | inactive: 0.947
4 | CGACAUGUACGCUUUUUGUTT against E430004F17Rik | inactive: -0.362
5 | GCACGAGAUUGACUUGCCUTT against D18Ertd653e | inactive: 0.0698
6 | GCCAUCGUGCGCAUGAUUUTT against Gstz1 | inactive: -0.315
7 | GGUGUUCUCGGUUUGAUCCTT against A930026L03Rik | inactive: -0.904
8 | GGAUGGUGUUGUGUUUAAATT against Chst2 | inactive: 1.58
9 | CCUUCGAAUCUGAAACCUUTT against Slc27a3 | inactive: -0.0884
10 | GGCCUGUGAUCAGAUGUACTT against 2900010M23Rik | inactive: -0.0114
11 | CCUACCAGUUCCUAUUUAGTT against Alas2 | inactive: -1.14
12 | CGGUCAAUACAAAUGCACUTT against Fcrh3 | inactive: -0.334
13 | GCUAUCACUUUUCAUUAGATT against G0s2 | inactive: 1.47
14 | GCAUCUGUAAAUCUUUAGCTT against Gpr85 | inactive: 0.596
15 | GCACUUUGGCAUAUUUUCATT against Slc6a15 | inactive: 1.16
16 | CGAGAUGAAUUUCUAGUAGTT against Tubgcp3 | inactive: -0.252
17 | GGAAGAAUUCUCAAAGAAUTT against 1200016D23Rik | inactive: 0.309
18 | GGUGAAGAGUAAGAUCUUGTT against Gga1 | inactive: 0.691
19 | GGACGGUCAUGUCUAUGAATT against Pglyrp1 | inactive: 0.417
20 | GGUGAUCUGAUAGUCAGAUTT against BB128963 | inactive: 0.0602
21 | GGUUUUAAUUGUUCAGACGTT against Lrrtm3 | inactive: 0.563
22 | GGUGGAAAUUUUCAGAGAATT against 4933411G06Rik | inactive: 1.02

4 entries from above, with each value named.
CGACAUGUACGCUUUUUGUTT against E430004F17Rik
  z-score: inactive: -0.362
GCACGAGAUUGACUUGCCUTT against D18Ertd653e
  z-score: inactive: 0.0698
CCUACCAGUUCCUAUUUAGTT against Alas2
  z-score: inactive: -1.14
GGUUUUAAUUGUUCAGACGTT against Lrrtm3
  z-score: inactive: 0.563

The listing continues:

Row | Sequence | z-score
23 | UAUGUUGGAGCCUAUGUUCTT against 5930434B04Rik | inactive: -1.39
24 | GGACACCAAAAAUGUAAACTT against 4933411K20Rik | inactive: -0.579
25 | CGUGACAAAUUGAAGGAAATT against Sh3d1B | inactive: 0.0786
26 | GGAUCUCCUUUUUUUUCAATT against Gabrr1 | inactive: 2.27
27 | AUGAGGAGACUCUUUGCUATT against Olfr1317 | inactive: 0.0996
28 | CGGUUCUGCAUAAAAGAACTT against 9130023D20Rik | inactive: 0.397
29 | GGGAAGGAUUAUGUCAAAUTT against Kit | inactive: 1.52
30 | GCUCAAGGCUAAGAUCAUUTT against AI449705 | inactive: -1.31
31 | GGUCAGAAUAUCCUCUUUUTT against Serpina9 | inactive: -2.71
32 | GGAAAACGAAAGAAACGAUTT against Rab15 | inactive: -0.187
33 | GGUAAAUUCUUUAAGGGACTT against Asah1 | inactive: -0.0846
34 | GGAGCAUUGAUAUAUGUCATT against Rragc | inactive: 0.817
35 | GGUGAUGUAUGUUACGCUGTT against Sfrs1 | inactive: -2.09
36 | GGGAUAGAGGCAGUUUUGATT against Rras2 | inactive: 0.305
37 | GGGUUUGAAGAGGUUUUCATT against 2610016F04Rik | inactive: -2.68
38 | GCUCGUCUCAGACUUAUUUTT against Il15 | inactive: 0.839
39 | GGUUUACCCAUCUUGGCCATT against Vwf | inactive: 0.328
40 | GCCAUACAGGUAGCUUCUGTT against Tradd | inactive: 0.155
41 | GGCUGAACAGAAUUAAGAATT against Surf6 | inactive: -0.146
42 | GCAAGAUGCACCUAGUGACTT against Cish | inactive: 2.95
43 | CCGAAUUCGUGUGAAACUGTT against Ablim2 | inactive: 0.0303
44 | GCACUUUUAAAUUAAGGUCTT against Casp12 | inactive: -0.362

Row | Sequence | z-score
45 | GGAAAGAGUCAUGGAAAUATT against Supt16h | inactive: -2.1
46 | GGCAGUUCAAAAGACCACATT against Zcchc7 | inactive: -0.655
47 | CCUUUUUGGUACGAGACGCTT against Pik3r1 | inactive: 0.294
48 | CGUGCUUACAUAAUGGAAATT against Rnaseh1 | inactive: 0.314
49 | GGAUCAGAAUUCUUCCCAGTT against Pnrc2 | inactive: 0.325
50 | CGUAUGUUCUGUCAGAUAUTT against 5630401D24Rik | inactive: -0.807
51 | GGAAAUACAGCUCGGAGCATT against Eaf2 | inactive: -1.68
52 | GGACAUAAUGCAAAACAUUTT against 4933427L07Rik | inactive: -0.15
53 | GGAAAGAAGCAGCGGACUUTT against Nme7 | inactive: -0.299
54 | GGGUAGAAAAGUGCAAUUUTT against Has2 | inactive: 0.124
55 | GCACUAAGAAAUGGAUCUATT against Igbp1 | inactive: -1.72
56 | GGUGAUUGAUGAGAUUUACTT against D1Ertd578e | inactive: 1.09
57 | GGGUGGCUUUCUAAUGUUGTT against Olfr362 | inactive: 0.486
58 | GGAAAGCUACAGAACCAUUTT against Tm6sf1 | inactive: 0.0899
59 | GGGAAUCUGAUGAAGAUGGTT against Grin3b | inactive: -1.49
60 | GGGAGGAACAUCACCUCAGTT against V2r1 | inactive: 0.0176
61 | CCGAAUCGUCCUAAACCAATT against Cyp11a1 | inactive: -0.532
62 | GGUCAUUCUAGGCUACAAUTT against Crx | inactive: 0.986
63 | GCCCUCAAUAAAUGCCAUCTT against Pcsk1n | inactive: 0.257
64 | GGAUUCGCCUUUUCUACCGTT against Hoxb2 | inactive: 0.77
65 | GGAAGCCUACCUUUAUAUUTT against Slc2a3 | inactive: 0.28
66 | GUGGAAUUCAUGGAUGACATT against Rps28 | inactive: -2.51
